Measured values as given in paper PMC7819943, “Rice protein-binding microarrays: a tool to detect cis-acting elements near promoter regions in rice”.
This is one part of the list.

Chains of the proteins cited; added tags and fusions are not shown.
UniProt Q0JBA9, entry or part of it: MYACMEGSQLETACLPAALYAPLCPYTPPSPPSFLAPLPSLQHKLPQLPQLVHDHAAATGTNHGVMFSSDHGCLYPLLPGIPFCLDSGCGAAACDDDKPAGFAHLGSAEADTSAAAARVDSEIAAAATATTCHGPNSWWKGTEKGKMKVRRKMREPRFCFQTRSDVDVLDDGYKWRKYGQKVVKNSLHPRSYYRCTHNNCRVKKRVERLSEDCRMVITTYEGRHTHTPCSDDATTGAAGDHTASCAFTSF

These sequences were tested against OsWRKY34 (Oryza sativa, UniProt Q0JBA9 1-250) (assay: protein-binding microarray (RPBM); PBS, 2% BSA, 51.3 ng/ul salmon testes DNA, 50 uM zinc acetate, 200 nM TF, 25 C, 1 h; high values mean tight binding). Settings: protein: recombinant; tags: N-terminal polyhistidine and DsRed monomer fusion (pET32a); label: CyDye5-dUTP incorporated in the synthesized complementary strand; 3' TTTTT single-stranded linker to array surface; dsDNA, one strand shown.
How it was run: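 The binding signal is fluorescence intensity per array feature (arbitrary units). Readings came from an Axon 4000B scanner after a washed, 2% BSA-blocked, double-stranded custom Agilent array had been incubated for 1 h at 25 °C with 200 nM protein and 50 µM zinc acetate. The protein was a Ni–NTA-purified transcription factor fused N-terminally to polyhistidine and DsRed, expressed in E. coli BL21-CodonPlus.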
With “CCTCCAATCCACTGGTAGCACACGCACGTCCATTCTTCGTCGGAGTCACCTAGTGCAG” the binding signal was 9100 fluorescence intensity (a.u.).
For “CTTCGTCACCCGGTATCCTTGACCGTTTGGACCTCAACTCCGGAGTCACCTAGTGCAG”, the binding signal was 10100 fluorescence intensity (a.u.).
For “CTCACCTGCTCCTACTTACAGACAAGGCCTTGGGCCCTTACGGAGTCACCTAGTGCAG”, the binding signal was 8810 fluorescence intensity (a.u.).
“ACATTTTTTATATACTTCCTCCGTTTCACAATGTAAGTCACGGAGTCACCTAGTGCAG” was tested, and the binding signal was 8230 fluorescence intensity (a.u.).
“ATTATCAATTTGTTATTGTGTACCTCGGTTGACTCCTGGACGGAGTCACCTAGTGCAG” was tested, and the binding signal was 8200 fluorescence intensity (a.u.).
With “TTAATATATTTTTTAGCTACTTCATATTATATACTTGTTACGGAGTCACCTAGTGCAG” the binding signal was 8090 fluorescence intensity (a.u.).
In the case of “ACCCGTTCCACCGCCTCGCCGTCCACTTCCAAACCCAACCCGGAGTCACCTAGTGCAG”, the binding signal is reported as 8740 fluorescence intensity (a.u.).
With “CCTATTTATCCTTTATTCTCTAGCATAGCATTGTCTTAGGCGGAGTCACCTAGTGCAG” the binding signal was 8670 fluorescence intensity (a.u.).
With “TTTCACCTCGATATTTTCCCTTGGAGACTCGTACATCGACCGGAGTCACCTAGTGCAG” the binding signal was 9230 fluorescence intensity (a.u.).
With “TTCATACCTATAGCCGCCACGGACTCTTTTCATTCATTCCCGGAGTCACCTAGTGCAG” the binding signal was 9980 fluorescence intensity (a.u.).
In the case of “TGTTCTTCAAGTTCCTGCGCATGTCTCCAGCCAACTCCCACGGAGTCACCTAGTGCAG”, the binding signal is reported as 8570 fluorescence intensity (a.u.).
With “ATAATTTGTTCATGCTCTCACTCCTTTGGGAGGTGCTCATCGGAGTCACCTAGTGCAG” the binding signal was 8460 fluorescence intensity (a.u.).
“CCTACACGTGTCCATCCTCAACCACGCGTCGGCACCTCCACGGAGTCACCTAGTGCAG” was tested, and the binding signal was 8340 fluorescence intensity (a.u.).
In the case of “ATCCTCTACGCATCCACCTGTGCCTCCTTTAATTCTAAGTCGGAGTCACCTAGTGCAG”, the binding signal is reported as 11000 fluorescence intensity (a.u.).
For “ATGGGAAGGGAATAATAATAATGCGTTGGGTTGGGTTCCGCGGAGTCACCTAGTGCAG”, the binding signal was 8380 fluorescence intensity (a.u.).
“GGGGATTTTACAACACATGAGTTCCTGCAGCTACATTTTACGGAGTCACCTAGTGCAG” was tested, and the binding signal was 12200 fluorescence intensity (a.u.).
“AGCCGTTAGGATCGCCCGCTCGCCGCAACGTTCTCTTTTTCGGAGTCACCTAGTGCAG” was tested, and the binding signal was 8520 fluorescence intensity (a.u.).
In the case of “CGTCGTTGACTCCTCTATAGTTGGTACTAGCTGTTAACTCCGGAGTCACCTAGTGCAG”, the binding signal is reported as 10300 fluorescence intensity (a.u.).
In the case of “CGAATTTTATCGCGCCCTCCGCATCATTCCGTCCGTTTTTCGGAGTCACCTAGTGCAG”, the binding signal is reported as 9720 fluorescence intensity (a.u.).
For “TTGCCAATGAGCTGCATGCCCTCACAGTCACATGTGAGACCGGAGTCACCTAGTGCAG”, the binding signal was 8090 fluorescence intensity (a.u.).
“AACTCTTGACAGCACCGACCATACGTGTACACAACCCATCCGGAGTCACCTAGTGCAG” was tested, and the binding signal was 8640 fluorescence intensity (a.u.).
For “TCTTCATTCATTTTCATTTTCCAATCCCACATCTCATAACCGGAGTCACCTAGTGCAG”, the binding signal was 9860 fluorescence intensity (a.u.).
For “GTACTCAGTCTTGCTCTATTTTCCCCAAACCCCAGAGTTTCGGAGTCACCTAGTGCAG”, the binding signal was 8500 fluorescence intensity (a.u.).
In the case of “GTGTGTGTAGGAAAGTTTTGATGTGATGGAAAAGTTGGAACGGAGTCACCTAGTGCAG”, the binding signal is reported as 8720 fluorescence intensity (a.u.).
With “CTTTGCTTGGTTGCTTGTGTTGTGTGCTGTGCTGTGCAGTCGGAGTCACCTAGTGCAG” the binding signal was 8220 fluorescence intensity (a.u.).
In the case of “GCGATGTGTGGAGATTGGATGGTTGGCTTCTTCTCGGTTTCGGAGTCACCTAGTGCAG”, the binding signal is reported as 10700 fluorescence intensity (a.u.).
“ACATGGTCACGTACTCACATCACATACATACATACAGACACGGAGTCACCTAGTGCAG” was tested, and the binding signal was 8030 fluorescence intensity (a.u.).
“ATTTTTACCTGTTACCTGTAGTTGCCGTACTCGCGAACAGCGGAGTCACCTAGTGCAG” was tested, and the binding signal was 8060 fluorescence intensity (a.u.).
With “TGTGGCTCATCAGTACTACTGCATCATGATTCCGATAATTCGGAGTCACCTAGTGCAG” the binding signal was 8250 fluorescence intensity (a.u.).
For “TGTGATTGCACATATATTTTCCTATTCCACATATTCCACACGGAGTCACCTAGTGCAG”, the binding signal was 9130 fluorescence intensity (a.u.).
With “GATCCTGGGTTCTACTTCTACGGGTCAAAAACAATTGTCCCGGAGTCACCTAGTGCAG” the binding signal was 9250 fluorescence intensity (a.u.).
In the case of “CGCCTATACCCCACCCGTCGTCAGTCGTCACTGCGCTCCACGGAGTCACCTAGTGCAG”, the binding signal is reported as 9570 fluorescence intensity (a.u.).
“TCGCTCTCGGAGACCGAGTCCGAGCGAGCTGATCTGTTTTCGGAGTCACCTAGTGCAG” was tested, and the binding signal was 8660 fluorescence intensity (a.u.).
“GACACCGTTGACTTTTTAGCACATGTTTGACCGCTCATCTCGGAGTCACCTAGTGCAG” was tested, and the binding signal was 32800 fluorescence intensity (a.u.).
For “CCTATATAAACCGCGCGTTTGCCTCACCTTTCACTTCATCCGGAGTCACCTAGTGCAG”, the binding signal was 9790 fluorescence intensity (a.u.).
With “GCTCACAACGCGCGTACCCTTGTCTCTATGAACGTCCTTGCGGAGTCACCTAGTGCAG” the binding signal was 9370 fluorescence intensity (a.u.).
With “TTTTATTGACTAATTTATGGGGTTTGTTTTGCCACTTTTGCGGAGTCACCTAGTGCAG” the binding signal was 8440 fluorescence intensity (a.u.).
“TGGGGTAGGGGTGGGATGAGAAAGAAGGAGAGATCGCCGGCGGAGTCACCTAGTGCAG” was tested, and the binding signal was 8590 fluorescence intensity (a.u.).
In the case of “AGCAAACCATGTTCAGTTAATCAATTTTTGCCATCAAGTTCGGAGTCACCTAGTGCAG”, the binding signal is reported as 8620 fluorescence intensity (a.u.).
With “CTTCGCCGGCGTCTCCGCCTCCGCATCTACGCCTGATTGACGGAGTCACCTAGTGCAG” the binding signal was 10500 fluorescence intensity (a.u.).
“ATCCATCCATTGGCCAAGTGGCTGCCGTGCTGCACCTATACGGAGTCACCTAGTGCAG” was tested, and the binding signal was 8130 fluorescence intensity (a.u.).
“ACGCCGACACCGCCGCGCCGCTCCGCCGCCCCTATCACGCCGGAGTCACCTAGTGCAG” was tested, and the binding signal was 8150 fluorescence intensity (a.u.).
